The nature of this test: qHTS Assay for Lipid Storage Modulators in Drosophila S3 Cells.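 On cell number change: cells counted by Cell Tracker Red CMTPX staining in the red channel.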 Particulars: BODIPY lipid droplet fluorescence, 18-24 h; for cell number change: measured here: cell count max response, cells fed with added oleic acid. In short, it runs like this:
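Drosophila S3 cells got compounds at several concentrations plus oleic acid (400 uM solution). Laser-scanning cytometry with 488 nm excitation read lipid droplets at 500-530 nm and cells at 575-640 nm. Percent activity was relative to 20 uM Triacsin C.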
A general note: In qHTS, concentration-response curves come from the screen itself.

Where [1] appears, read: measured here: cell number channel AC50, cells fed with added oleic acid.
Where [2] appears, read: measured here: lipid fluorescence (Fed channel) AC50, cells fed with added oleic acid.

Structures are written as SMILES. The list shows a part of the results. These are further read-outs of the screen, such as a control signal, another cell line or another target. No call is given for them. The list favours compounds with an active or inconclusive main result. The note in brackets gives the kind of curve behind each potency; many fits are weak.

Broadly, the AC50 is the concentration at which the activity in the assay is half-maximal. A lower AC50 goes with activity at low concentration. `Cc1ccc(/C=C2\CCC3=C2OC(N)=C(C#N)C3c2ccc(C)cc2)cc1` (stereo unspecified): the cell number change was -62.6%. Moreover, under setting [1], the concentration at half-maximal activity (AC50) is 29.1 µM [falling, single point].

As to `CC(C)(C)c1ccc(C(=O)N2CCCC2c2cccs2)cc1` (stereo unspecified), the cell number change was -17.1%. In addition, the AC50 under setting [2] is 0.206 µM [rising, single point].

Take `COc1ccc(C2=NOC(C(=O)Nc3cc(C)nn3-c3ccccc3)C2)cc1OC` (stereo unspecified): the cell number change is 2.63%. The AC50 under setting [2] was 9.2 µM [rising, partial curve].

In the case of `CN(C)c1nc(NC(C)(C)C)nc(SCC(=O)Nc2ccccc2)n1`, the cell number change was -31.3%.

Consider `C=CCOc1ccccc1NC(=O)CN1C(=O)CNC1=O`, for which the cell number change turned out to be 14.8%. The AC50 under setting [2] was 6.51 µM [falling, single point].

Regarding `CN(C(=O)CSc1nnc(-c2ccc3c(c2)OCO3)o1)C1CCS(=O)(=O)C1` (stereo unspecified), the cell number change was -6.98%. For the same compound, under setting [2], the half-maximal activity concentration (AC50) was 0.231 µM [rising, full curve, poor fit].

In the case of `CCOc1nc(C)ccc1-c1noc(-c2ccco2)n1`, the AC50 under setting [2] is 6.51 µM [rising, single point].

As for `CCOc1ccc(NC(=O)CC2C(=O)N(c3ccccc3)C(=O)N2Cc2ccccn2)cc1` (stereo unspecified), the cell number change is 67%. Further, under setting [1], the AC50 is 9.2 µM [rising, partial curve]. Besides, the AC50 under setting [2] was 13 µM [rising, partial curve].

With `O=C(COc1ccccc1)NNC1=NS(=O)(=O)c2ccccc21`, the cell number change was 11.1%. For the same compound, the AC50 under setting [1] was 1.16 µM [falling, partial curve]. Under setting [2], the AC50 is 0.164 µM [falling, full curve].

Take `Cc1ccc(S(=O)(=O)N(C)c2ccc(C(=O)Nc3cccnc3)cc2)cc1`: the cell number change was -6.93%.

Regarding `COc1ccc(C(=O)NC2CCN(C(=S)Nc3ccccc3)CC2)cc1`, the cell number change came out at 28%. Further, the AC50 under setting [2] was 29.1 µM [rising, single point].

Turning to `O=C(O)C1=C[C@@H](C2CC2)C[C@@H](OCc2ccc(CO)cc2)O1`, the cell number change was -35.3%. Moreover, the AC50 under setting [2] is 29.1 µM [falling, single point].

For the compound `COc1cc(C2C(C#N)=C(N)Oc3cc(C)n(CCc4ccccc4)c(=O)c32)cc2c1OCO2` (stereo unspecified), the concentration at half-maximal activity (AC50) under setting [2] is 1.84 µM [rising, partial curve].

With `CC(C)C[C@H]1CN=C(N(C)C)N1CC1CCCCCC1`, the cell number change was 14.7%. Further, under setting [2], the AC50 was 3.66 µM [rising, full curve, poor fit].

For the compound `COc1cccc(/C=N/NC(=O)c2ccc([N+](=O)[O-])cc2Cl)c1O`, the cell number change is -35.8%. In addition, the AC50 under setting [1] is 20.6 µM [falling, single point]. Under setting [2], the AC50 is 5.8 µM [falling, partial curve].

Turning to `Cc1cc(C)nc(SC2CCCCC2NS(=O)(=O)c2ccccc2)n1` (stereo unspecified), the cell number change came to 5.56%. The AC50 under setting [2] is 3.26 µM [rising, single point].

As to `Cc1c(OC(C)C(=O)NCC2CCC(C(=O)O)CC2)ccc2c1oc(=O)c1ccccc12` (stereo unspecified), the cell number change stood at 23%. The AC50 under setting [2] was 0.116 µM [rising, full curve, poor fit].

Consider `Cc1ccc(S(=O)(=O)Nc2ncnc3ccccc23)cc1`, for which the cell number change came out at 14.5%.

Regarding `Cc1cccc(CCNC(=O)CCNS(=O)(=O)c2cc(Br)cnc2N)c1`, the cell number change was 30.7%. In addition, under setting [1], the AC50 is 14.6 µM [rising, single point]. Further, the AC50 under setting [2] was 6.51 µM [rising, partial curve].

Turning to `Cc1ccc(CNc2c(C=O)c(=O)[nH]c3ccccc23)cc1`, the cell number change came to 21.3%.

Regarding `CC(C)NC(=O)C1CCN(Cc2cccc(Oc3ccccc3)c2)CC1`, the cell number change was 32.4%. Besides, the AC50 under setting [1] is 23.1 µM [rising, partial curve, poor fit].

With `O=C1NCCN1C(=O)c1ccccc1F`, the cell number change amounted to 3.2%. The AC50 under setting [2] is 14.6 µM [falling, partial curve, poor fit].

Consider `CCCN(CC(=O)Nc1ccccc1OC)C(=O)c1cc(-c2ccccc2)nn1-c1ccccc1`, for which the cell number change was 13.7%. For the same compound, under setting [1], the AC50 was 6.51 µM [falling, partial curve, poor fit].

For the compound `Cc1nc2ccccn2c1/C(O)=C1\C(=O)C(=O)N(CCCn2ccnc2)C1c1ccncc1` (stereo unspecified), the cell number change is 76.4%. The AC50 under setting [2] was 4.11 µM [falling, single point].

In the case of `O=S(=O)(Nc1ccccc1N1CCCCC1)c1ccc(F)cc1F`, the AC50 reads like this: under setting [1], 0.58 µM [rising, single point]; under setting [2], 6.51 µM [rising, partial curve].

Consider `O=C(Nc1ccc2c(c1)OCO2)Nc1ccc(F)cc1F`, for which the cell number change came to 0.438%. Moreover, the AC50 under setting [2] is 35.5 µM [rising, single point].

As to `CS(=O)(=O)Cc1cc(N2CCCC2)nc(-c2ccccc2)n1`, the cell number change was determined as 59.8%. In addition, under setting [1], the AC50 was 0.0058 µM [rising, full curve, poor fit].

As to `C=CCOc1nc(-c2ccncc2)nc2ccccc12`, the cell number change was -34.5%. Under setting [1], the AC50 was 9.2 µM [falling, partial curve]. Under setting [2], the AC50 is 20.6 µM [falling, single point].

Regarding `CC1CCCCN1C(=O)c1cnn2c(C(F)(F)F)cc(-c3ccco3)nc12` (stereo unspecified), the cell number change stood at 74.9%. Moreover, the AC50 under setting [1] is 7.31 µM [rising, partial curve]. For the same compound, the AC50 under setting [2] was 6.51 µM [rising, full curve, poor fit].

In the case of `COc1ccc(CNC(=O)COC(=O)c2cc(-c3ccc(Cl)s3)nc3ccccc23)cc1`, the cell number change is -10.3%. Also, the AC50 under setting [2] was 0.116 µM [rising, full curve, poor fit].

For `Cc1ccc(NC(=O)/C(=C\c2ccc([N+](=O)[O-])cc2)NC(=O)c2ccccc2)cc1`, the cell number change was -17%.

As to `COc1ccc(C(=O)NC(=S)N2CCC(C)CC2)cc1`, the cell number change was 91.2%. Also, the AC50 under setting [1] is 25.9 µM [rising, partial curve]. The AC50 under setting [2] is 3.26 µM [rising, partial curve].

On to `CCOCc1cn(CC(=O)c2ccc(Cl)cc2)c(C)nc1=N`, for which the cell number change is 33.8%. Also, the AC50 under setting [1] is 3.66 µM [rising, partial curve, poor fit].

Turning to `Cc1ccc(SCC(=O)NC(=O)NC(C)C)c(C)c1`, the cell number change is -11.3%.

In the case of `Cc1ccc(-c2noc(CCC(=O)Nc3cccc(C#N)c3)n2)cc1`, the cell number change was -17.7%. Under setting [2], the AC50 is 0.146 µM [falling, single point].

`CCCc1[nH]nc2c1C(c1ccc(OCCN3CCOCC3)c(OCC)c1)C(C#N)=C(N)O2` (stereo unspecified): the cell number change was 13.5%.

With `Cc1cc2c(cc1S(=O)(=O)Nc1cccc(C)c1C)OCC(=O)N2`, the cell number change worked out at 4.03%. Moreover, the AC50 under setting [2] was 6.51 µM [falling, single point].

On to `O=[N+]([O-])c1cc(Cl)cc(C2=NCCN2)c1`, for which the cell number change came to 7.49%.

On to `COc1ccc(NC(=O)C2(c3ccc(NC(=O)c4ccc(OC(C)=O)cc4)cc3)CCCC2)cc1`, for which the cell number change is -23.4%. In addition, under setting [2], the AC50 is 0.259 µM [falling, full curve, poor fit].

Take `CC(=O)Nc1ccc(-c2csc(Nc3cccc(C)n3)n2)cc1`: the cell number change was -33.4%. Also, under setting [1], the AC50 is 0.366 µM [falling, partial curve, poor fit]. Further, the AC50 under setting [2] was 2.59 µM [falling, single point].

In the case of `Cc1ccccc1C(=O)N1CCC(C(=O)NC(C)c2ccc(-n3ccnc3)cc2)CC1` (stereo unspecified), the cell number change stood at 30.2%. In addition, under setting [1], the AC50 was 18.4 µM [rising, partial curve, poor fit]. The AC50 under setting [2] is 29.1 µM [rising, partial curve, poor fit].

With `C/C(=N\NC(=S)NC1CCCCC1)c1c(F)cccc1F`, the cell number change came to 48%. For the same compound, under setting [1], the AC50 is 13 µM [rising, partial curve, poor fit].

Turning to `CCOc1ccc(/C=C/C(=O)c2c(O)cc(C)oc2=O)cc1`, the cell number change turned out to be 11.9%. In addition, the AC50 under setting [2] is 0.731 µM [falling, single point].

Turning to `COc1ccccc1N1CCN(C(=O)c2cccc(N3C(=O)NC4CC3(C)Oc3c(OC)cccc34)c2)CC1` (stereo unspecified), the cell number change is -28%.

For `Cc1ccc(NC(=O)CSCC(=O)N2CCCc3ccccc32)cc1`, the cell number change was found to be 17%.

Consider `COC(=O)c1cc(=O)nc2scc(C)n12`, for which the cell number change was 0.0128%. For the same compound, the AC50 under setting [2] was 0.517 µM [falling, full curve].

Turning to `CC(C)c1nc(SCC(=O)Nc2ccc(N(C)C)cc2)c2ccccc2n1`, the cell number change is -4.14%. Also, under setting [2], the AC50 was 0.184 µM [rising, full curve].

For `CCn1c(Cc2ccccc2)nnc1SCC(=O)Nc1ccc(N)cc1`, the cell number change worked out at 40.5%. Moreover, the AC50 under setting [1] is 8.2 µM [rising, partial curve, poor fit]. Moreover, under setting [2], the AC50 was 6.51 µM [rising, single point].

As for `Cc1c(-n2cc(C(=O)c3cc(Cl)ccc3O)cc(C#N)c2=O)c(=O)n(-c2ccccc2)n1C`, the cell number change is 18.2%. Further, under setting [2], the AC50 is 0.92 µM [rising, single point].

On to `O=C(Nc1ccccc1)Nc1cc([N+](=O)[O-])ccc1F`, for which the AC50 under setting [1] is 6.51 µM [rising, single point].

On to `CCNC(=O)CC1C(=O)N(c2ccc(F)cc2)C(=O)N1Cc1cccs1` (stereo unspecified), for which the cell number change is -23.5%. Further, under setting [2], the AC50 was 0.58 µM [rising, single point].

For `Cc1nc(N)sc1-c1csc(Nc2ccccc2)n1`, the cell number change is -9.31%. For the same compound, the AC50 under setting [2] is 4.11 µM [rising, full curve, poor fit].

For the compound `OC(COc1ccc2c(c1)CCC2)CN1CCN(c2cccc(Cl)c2)CC1` (stereo unspecified), the cell number change was -92.5%. Besides, the AC50 under setting [1] was 0.461 µM [falling, partial curve, poor fit]. Under setting [2], the AC50 is 16.4 µM [falling, partial curve].

In the case of `Cc1cccc(/C=C2\Sc3ccc(C(=O)N4CCCCC4)cc3N(C)C2=O)c1`, the AC50 under setting [2] is 4.11 µM [falling, single point].

Regarding `Cc1cc2c(cc(C(=O)OC(C(=O)NCc3ccco3)C(C)C)n2C)o1` (stereo unspecified), the cell number change was -8.34%.

For the compound `CCn1c(SCC(=O)Nc2ccccc2)nnc1-c1ccc(S(=O)(=O)N2CCOCC2)cc1`, the cell number change amounted to 14.1%. The AC50 under setting [2] is 29.1 µM [rising, single point].

With `CCN(CC(=O)NC(C)C)C(=O)c1ccc(S(=O)(=O)N(C)c2ccccc2OC)cc1`, the cell number change amounted to 16.3%. The AC50 under setting [1] is 0.731 µM [rising, full curve].

Consider `COC(=O)C1=C(C)NC(C)=C(C(=O)OC)C1C(=O)OCCN1C(=O)c2ccccc2C1=O`, for which the cell number change was -16.3%. The AC50 under setting [2] was 3.26 µM [rising, partial curve].

`COC(=O)c1cc(S(=O)(=O)N2CCC(c3cc(OC)ccc3OC)C2)c[nH]1` (stereo unspecified): the cell number change is -10.7%.

`FC(F)Sc1ccc(NC(=S)NC2CCCCC2)cc1`: the cell number change was -45.2%. Besides, the AC50 under setting [1] is 16.4 µM [falling, single point]. Further, the AC50 under setting [2] was 14.6 µM [falling, single point].

These data come from PubChem BioAssay AID2685 (National Center for Advancing Translational Sciences (NCATS), 2010).
